The record followed here is patent US20040096448A1.

Chains of the proteins cited; added tags and fusions are not shown.
UniProt P31749: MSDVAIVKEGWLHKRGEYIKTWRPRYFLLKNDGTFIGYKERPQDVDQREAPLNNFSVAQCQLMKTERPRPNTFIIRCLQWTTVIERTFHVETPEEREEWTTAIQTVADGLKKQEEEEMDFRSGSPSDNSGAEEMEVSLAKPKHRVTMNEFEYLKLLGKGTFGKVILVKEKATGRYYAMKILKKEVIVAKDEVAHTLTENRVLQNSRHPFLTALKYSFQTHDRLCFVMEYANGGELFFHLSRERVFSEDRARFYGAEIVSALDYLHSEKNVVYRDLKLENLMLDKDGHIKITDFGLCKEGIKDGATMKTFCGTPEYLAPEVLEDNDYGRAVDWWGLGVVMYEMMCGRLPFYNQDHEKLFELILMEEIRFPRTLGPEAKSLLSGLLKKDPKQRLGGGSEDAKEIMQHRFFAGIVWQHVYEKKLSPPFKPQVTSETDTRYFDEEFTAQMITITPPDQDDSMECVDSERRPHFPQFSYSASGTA

The experiment deals with T1, GSH-bead-immobilized recombinant GST-fused AIP purified from bacterial lysates (human) (UniProt Q96P53).
T1 sequence: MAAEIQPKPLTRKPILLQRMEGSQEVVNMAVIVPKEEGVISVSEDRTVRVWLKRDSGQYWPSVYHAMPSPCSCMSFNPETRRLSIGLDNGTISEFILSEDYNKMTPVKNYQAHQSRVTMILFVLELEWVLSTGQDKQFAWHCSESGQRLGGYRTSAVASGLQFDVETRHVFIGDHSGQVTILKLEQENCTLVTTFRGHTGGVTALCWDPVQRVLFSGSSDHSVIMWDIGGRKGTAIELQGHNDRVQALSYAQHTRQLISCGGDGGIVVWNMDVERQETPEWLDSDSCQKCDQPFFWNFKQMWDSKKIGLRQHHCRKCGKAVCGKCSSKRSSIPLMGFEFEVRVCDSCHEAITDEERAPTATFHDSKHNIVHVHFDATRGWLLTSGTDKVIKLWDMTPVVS
The experiment can be described thus: pull-down: GST-AIP on GSH beads incubated with lysate of IGF-stimulated 293T cells expressing HA-Akt-1; anti-HA western blot.

Results are given in words; binding and its absence hold for the method and conditions named. Binding seen in cells or lysates may run through a third protein. Some entries that bind do so weakly or less than the wild type. Tags and fused reporters may be left off the sequences shown.

Take “HA-tagged Akt-1 protein expressed in 293T cells (lysate, after serum starvation and IGF stimulation for 0, 5, 20, 45 min) (from UniProt P31749 1-480) (enzyme)”: the binding result is reported as “binds”.
